Here are results for one compound from PubChem BioAssay AID2289 (National Center for Advancing Translational Sciences (NCATS), 2010).

The entries are a selection whose mix differs from that of the whole data set. Results filed as inconclusive are left out. Active and inactive are the calls of the source. Calls follow the shape of the dose curve; as a rule, active = well fitted inhibition curve with a large enough effect; inconclusive = small, poorly fitted or top-dose-only effect, or effect the other way; inactive = flat fitted curve, though single readings scatter.
Potency is read from the fitted curve at half-maximal effect.

A short description of this assay: qHTS Assay for Modulators of miRNAs and/or Inhibitors of miR-21. Also: nearly all actives have a fitted effect of over 55% in size. Conditions: HeLa miR-21-FLuc reporter, luciferase luminescence, 48 h; actives lower the signal. The text has this:
MLSCN Grant: 1 R21 NS059478-01 Assay Provider: Qihong Huang, The Wistar Institute NCGC Assay Overview: MicroRNAs (miRNAs) are endogenously encoded small (~20-25 nucleotides), nonprotein-coding RNAs that are involved in post-transcriptional repression of target messenger RNAs (mRNAs) (Le and Hannon, 2004). Estimated to be involved in the regulation of 30% of all protein-coding mRNAs (Filipowicz et al., 2008), miRNAs play a significant role in many biological processes including cellular differentiation and tissue development (Ghildiyal and Zamore, 2009).
NCGC Assay Protocol Summary: Reagents: HeLa cells stably expressing firefly luciferase (FLuc) under the control of a CMV promoter (upstream) and a miR-21 binding sequence directly downstream of the gene. These cells endogenously express miR-21. Control compounds used were compound C3 (provided by collaborator), N6-phenyladenosine (MP Biomedicals, 0215379625), and DMSO. Assay Summary: 6uL of HeLa miR-21-FLuc cells in assay buffer (DMEM, Invitrogen #21063-029; 10% FBS, HyClone #SH30071.03) were dispensed at 2000cells/well (3.3 x 10^5 cells/mL) into Greiner solid-white TC-treated 1536-well plates using a Multidrop Combi (Thermo Fisher Scientific). […] After a 15 minute incubation to allow for cell lysis, luciferase activity was measured using a ViewLux CCD imager (PerkinElmer), with an average exposure time of 2-12 seconds. […]
(In general: Quantitative high-throughput screening tests each substance at several concentrations.)
For `Cc1cc(=O)oc2cc(OCc3ccccc3)ccc12`, the Potency was active: 1850 nM.
